Some of the results follow.
Compound: C1CN(CCC1(CC2=CC=C(C=C2)Cl)N)C3=NC=NC4=C3C=CN4
Assay: log2 fold change, soluble protein after heating vs DMSO (PISA); higher = thermal stabilisation; K562 lysate, 10 uM; active = over 0.2 and 3.5 SD of the protein, either way, in both replicates (recomputed)
Procedure, shortened: (§1)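 Dounce homogenisation of K562 pellets in PBS pH 7.4 with 1 mM MgCl2 produced a crude extract, used at 1 mg/mL protein. Exposure to 10 μM compound lasted 30 min, and aliquots were then heated for 3 min across 48°C-58°C, pooled and brought to 0.5% NP-40 at 4°C. The supernatant after 21,000xg for 90 min was quantified by TMTpro 16plex LC-MS/MS with channel sums equalised. Duplicate values are given as log-two fold change in thermal stability relative to solvent controls.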

Amino acid sequences for entries named in this document (tags omitted). A change or cut given only in a name is not applied to a line headed by its entry.
UniProt O14879: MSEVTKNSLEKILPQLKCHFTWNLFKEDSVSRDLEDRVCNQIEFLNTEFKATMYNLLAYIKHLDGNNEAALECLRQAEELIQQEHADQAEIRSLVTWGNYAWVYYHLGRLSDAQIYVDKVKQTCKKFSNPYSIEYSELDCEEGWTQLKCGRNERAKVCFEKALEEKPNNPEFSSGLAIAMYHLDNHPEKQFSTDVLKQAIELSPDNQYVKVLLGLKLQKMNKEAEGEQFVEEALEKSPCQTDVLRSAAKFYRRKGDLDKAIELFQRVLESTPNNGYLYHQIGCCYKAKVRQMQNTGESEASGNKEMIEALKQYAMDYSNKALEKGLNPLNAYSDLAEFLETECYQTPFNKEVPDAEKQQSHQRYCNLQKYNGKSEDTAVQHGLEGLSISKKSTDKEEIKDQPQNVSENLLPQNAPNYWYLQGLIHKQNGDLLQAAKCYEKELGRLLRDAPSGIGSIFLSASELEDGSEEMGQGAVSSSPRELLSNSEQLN
UniProt P38935: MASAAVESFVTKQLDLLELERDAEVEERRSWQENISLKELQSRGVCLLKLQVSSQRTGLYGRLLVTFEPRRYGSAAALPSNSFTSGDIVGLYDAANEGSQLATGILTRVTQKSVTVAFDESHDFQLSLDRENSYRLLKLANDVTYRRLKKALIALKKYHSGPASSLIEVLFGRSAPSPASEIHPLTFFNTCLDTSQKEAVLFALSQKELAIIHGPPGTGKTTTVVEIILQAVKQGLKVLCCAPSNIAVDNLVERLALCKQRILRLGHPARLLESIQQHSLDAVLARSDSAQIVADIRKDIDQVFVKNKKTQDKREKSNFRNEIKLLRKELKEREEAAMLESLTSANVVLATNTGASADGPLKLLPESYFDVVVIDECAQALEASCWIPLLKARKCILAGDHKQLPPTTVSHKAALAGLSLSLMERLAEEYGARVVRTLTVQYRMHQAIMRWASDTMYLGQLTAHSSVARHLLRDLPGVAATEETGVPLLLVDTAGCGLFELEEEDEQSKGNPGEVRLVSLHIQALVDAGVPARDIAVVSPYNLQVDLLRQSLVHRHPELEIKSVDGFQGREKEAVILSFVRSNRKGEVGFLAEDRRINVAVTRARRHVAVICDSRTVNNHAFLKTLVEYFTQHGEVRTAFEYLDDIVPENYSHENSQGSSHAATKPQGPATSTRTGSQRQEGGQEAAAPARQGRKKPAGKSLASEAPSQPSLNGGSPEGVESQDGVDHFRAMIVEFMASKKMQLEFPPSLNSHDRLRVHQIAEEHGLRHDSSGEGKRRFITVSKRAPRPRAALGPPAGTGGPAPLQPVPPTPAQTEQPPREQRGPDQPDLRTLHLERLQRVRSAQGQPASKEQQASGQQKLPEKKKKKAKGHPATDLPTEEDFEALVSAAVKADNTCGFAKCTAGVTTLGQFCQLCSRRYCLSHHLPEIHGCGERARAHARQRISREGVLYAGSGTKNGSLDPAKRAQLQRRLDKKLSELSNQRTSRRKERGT
UniProt Q96F46, whole entry, looked up: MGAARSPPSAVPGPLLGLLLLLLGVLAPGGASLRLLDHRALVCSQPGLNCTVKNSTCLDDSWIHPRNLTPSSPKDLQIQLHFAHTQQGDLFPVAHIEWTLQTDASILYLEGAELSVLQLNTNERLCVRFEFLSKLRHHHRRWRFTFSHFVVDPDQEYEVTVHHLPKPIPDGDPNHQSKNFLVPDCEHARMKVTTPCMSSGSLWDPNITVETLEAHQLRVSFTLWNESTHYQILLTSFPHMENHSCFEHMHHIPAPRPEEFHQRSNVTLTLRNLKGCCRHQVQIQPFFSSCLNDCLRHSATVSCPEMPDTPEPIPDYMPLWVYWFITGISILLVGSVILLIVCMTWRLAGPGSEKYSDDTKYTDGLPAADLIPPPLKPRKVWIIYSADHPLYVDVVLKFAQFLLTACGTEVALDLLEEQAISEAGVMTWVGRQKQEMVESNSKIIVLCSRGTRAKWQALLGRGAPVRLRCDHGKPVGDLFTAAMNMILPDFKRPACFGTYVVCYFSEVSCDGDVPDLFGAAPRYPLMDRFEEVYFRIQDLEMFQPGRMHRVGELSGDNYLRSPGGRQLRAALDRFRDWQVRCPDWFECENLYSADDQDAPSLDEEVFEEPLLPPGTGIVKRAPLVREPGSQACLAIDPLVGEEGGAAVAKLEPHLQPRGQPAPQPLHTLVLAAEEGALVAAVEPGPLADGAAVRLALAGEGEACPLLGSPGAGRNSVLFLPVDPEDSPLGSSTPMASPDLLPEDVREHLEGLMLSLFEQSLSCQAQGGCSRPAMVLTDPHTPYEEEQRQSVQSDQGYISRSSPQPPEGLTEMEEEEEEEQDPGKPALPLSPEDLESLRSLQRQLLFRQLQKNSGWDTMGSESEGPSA
UniProt O60725, whole entry, looked up: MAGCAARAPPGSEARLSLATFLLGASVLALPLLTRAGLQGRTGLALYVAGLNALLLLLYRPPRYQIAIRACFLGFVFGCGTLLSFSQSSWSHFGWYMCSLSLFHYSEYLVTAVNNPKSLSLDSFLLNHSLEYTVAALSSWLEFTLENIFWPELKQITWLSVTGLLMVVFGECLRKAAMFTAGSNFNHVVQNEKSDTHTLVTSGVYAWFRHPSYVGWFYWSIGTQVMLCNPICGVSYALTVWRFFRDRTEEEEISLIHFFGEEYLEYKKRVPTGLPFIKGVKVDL
UniProt Q8N6C5: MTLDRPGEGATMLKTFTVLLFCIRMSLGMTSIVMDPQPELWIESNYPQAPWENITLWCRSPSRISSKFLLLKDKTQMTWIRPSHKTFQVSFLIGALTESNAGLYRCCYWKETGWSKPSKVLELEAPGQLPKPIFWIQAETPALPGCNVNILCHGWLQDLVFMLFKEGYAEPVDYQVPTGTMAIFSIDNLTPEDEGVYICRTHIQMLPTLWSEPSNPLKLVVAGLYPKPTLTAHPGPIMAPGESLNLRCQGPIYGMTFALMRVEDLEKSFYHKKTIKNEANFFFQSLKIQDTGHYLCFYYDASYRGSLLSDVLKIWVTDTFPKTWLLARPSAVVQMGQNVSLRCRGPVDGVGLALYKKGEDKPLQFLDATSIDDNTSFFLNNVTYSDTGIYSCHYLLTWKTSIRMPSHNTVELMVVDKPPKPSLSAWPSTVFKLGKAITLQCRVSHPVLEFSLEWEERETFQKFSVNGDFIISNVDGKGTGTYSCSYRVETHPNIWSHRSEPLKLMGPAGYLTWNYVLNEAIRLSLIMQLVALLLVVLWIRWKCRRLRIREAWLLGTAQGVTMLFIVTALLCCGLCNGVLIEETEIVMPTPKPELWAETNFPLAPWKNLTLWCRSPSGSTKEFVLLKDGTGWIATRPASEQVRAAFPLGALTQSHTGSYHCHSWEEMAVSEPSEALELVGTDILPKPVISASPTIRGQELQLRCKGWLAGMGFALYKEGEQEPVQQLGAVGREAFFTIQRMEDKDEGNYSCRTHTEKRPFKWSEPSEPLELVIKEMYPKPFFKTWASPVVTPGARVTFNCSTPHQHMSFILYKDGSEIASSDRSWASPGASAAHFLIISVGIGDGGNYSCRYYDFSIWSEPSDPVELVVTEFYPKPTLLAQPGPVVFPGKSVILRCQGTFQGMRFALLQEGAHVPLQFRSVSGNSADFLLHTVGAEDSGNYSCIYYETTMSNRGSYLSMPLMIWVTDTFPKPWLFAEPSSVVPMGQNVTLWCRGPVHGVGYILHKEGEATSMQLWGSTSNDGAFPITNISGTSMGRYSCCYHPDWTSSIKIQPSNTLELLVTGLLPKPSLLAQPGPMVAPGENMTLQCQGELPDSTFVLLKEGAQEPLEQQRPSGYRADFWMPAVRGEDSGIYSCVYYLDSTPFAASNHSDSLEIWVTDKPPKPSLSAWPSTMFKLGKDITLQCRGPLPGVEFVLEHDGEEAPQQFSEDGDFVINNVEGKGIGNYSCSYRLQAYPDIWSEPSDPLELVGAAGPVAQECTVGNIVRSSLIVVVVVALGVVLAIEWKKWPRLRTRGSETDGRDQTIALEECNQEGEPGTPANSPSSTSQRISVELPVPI
UniProt Q92598: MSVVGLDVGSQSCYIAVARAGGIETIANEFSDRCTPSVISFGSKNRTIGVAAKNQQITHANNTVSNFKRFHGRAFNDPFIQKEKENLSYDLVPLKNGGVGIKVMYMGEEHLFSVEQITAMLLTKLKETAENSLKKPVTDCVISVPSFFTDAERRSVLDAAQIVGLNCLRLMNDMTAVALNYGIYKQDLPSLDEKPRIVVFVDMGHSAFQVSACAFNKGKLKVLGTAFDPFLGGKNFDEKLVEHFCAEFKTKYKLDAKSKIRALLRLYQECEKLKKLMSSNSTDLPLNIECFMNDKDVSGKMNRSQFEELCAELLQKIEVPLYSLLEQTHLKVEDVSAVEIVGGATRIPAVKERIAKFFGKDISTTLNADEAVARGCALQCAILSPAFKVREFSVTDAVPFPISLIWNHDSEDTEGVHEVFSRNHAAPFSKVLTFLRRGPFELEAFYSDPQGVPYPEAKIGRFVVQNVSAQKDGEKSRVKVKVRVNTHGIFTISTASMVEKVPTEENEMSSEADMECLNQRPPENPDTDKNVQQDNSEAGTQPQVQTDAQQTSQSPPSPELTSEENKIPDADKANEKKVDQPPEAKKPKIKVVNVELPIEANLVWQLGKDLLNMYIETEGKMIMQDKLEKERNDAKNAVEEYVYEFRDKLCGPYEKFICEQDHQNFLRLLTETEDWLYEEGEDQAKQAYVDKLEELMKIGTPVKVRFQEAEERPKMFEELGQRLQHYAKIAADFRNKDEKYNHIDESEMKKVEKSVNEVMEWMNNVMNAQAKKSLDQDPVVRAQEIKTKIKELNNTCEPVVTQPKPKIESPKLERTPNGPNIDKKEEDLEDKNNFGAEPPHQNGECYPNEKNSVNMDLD
UniProt Q9H160: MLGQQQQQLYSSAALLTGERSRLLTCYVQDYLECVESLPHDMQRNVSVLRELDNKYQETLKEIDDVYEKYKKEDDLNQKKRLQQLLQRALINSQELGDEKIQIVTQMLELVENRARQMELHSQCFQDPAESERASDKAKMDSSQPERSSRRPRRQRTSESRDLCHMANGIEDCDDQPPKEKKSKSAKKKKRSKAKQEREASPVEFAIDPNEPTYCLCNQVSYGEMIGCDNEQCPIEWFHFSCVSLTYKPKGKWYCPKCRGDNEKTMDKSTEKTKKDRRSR
UniProt P01877, whole entry, looked up: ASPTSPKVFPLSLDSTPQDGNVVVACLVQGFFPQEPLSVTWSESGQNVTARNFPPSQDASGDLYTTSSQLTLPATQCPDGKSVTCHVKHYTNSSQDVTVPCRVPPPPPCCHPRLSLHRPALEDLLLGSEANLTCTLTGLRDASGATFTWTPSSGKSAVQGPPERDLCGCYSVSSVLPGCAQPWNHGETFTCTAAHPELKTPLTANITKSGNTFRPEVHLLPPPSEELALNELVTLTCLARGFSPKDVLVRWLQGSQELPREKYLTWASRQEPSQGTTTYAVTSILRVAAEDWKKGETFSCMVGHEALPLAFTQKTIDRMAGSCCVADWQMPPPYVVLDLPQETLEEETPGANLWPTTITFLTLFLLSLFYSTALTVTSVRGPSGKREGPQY
UniProt Q6PI98, whole entry, looked up: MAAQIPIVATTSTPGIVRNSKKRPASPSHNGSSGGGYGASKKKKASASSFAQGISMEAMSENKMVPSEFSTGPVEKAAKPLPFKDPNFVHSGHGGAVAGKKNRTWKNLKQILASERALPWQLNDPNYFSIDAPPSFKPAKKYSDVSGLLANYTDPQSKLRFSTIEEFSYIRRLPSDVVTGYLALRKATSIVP
IGKV3D-7, A0A0C4DH55, UniProt A0A0C4DH55, whole entry, looked up: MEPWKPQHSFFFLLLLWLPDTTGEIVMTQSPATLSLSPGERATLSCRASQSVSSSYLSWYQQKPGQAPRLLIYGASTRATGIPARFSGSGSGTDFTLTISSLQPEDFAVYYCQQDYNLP
UniProt Q9UK53: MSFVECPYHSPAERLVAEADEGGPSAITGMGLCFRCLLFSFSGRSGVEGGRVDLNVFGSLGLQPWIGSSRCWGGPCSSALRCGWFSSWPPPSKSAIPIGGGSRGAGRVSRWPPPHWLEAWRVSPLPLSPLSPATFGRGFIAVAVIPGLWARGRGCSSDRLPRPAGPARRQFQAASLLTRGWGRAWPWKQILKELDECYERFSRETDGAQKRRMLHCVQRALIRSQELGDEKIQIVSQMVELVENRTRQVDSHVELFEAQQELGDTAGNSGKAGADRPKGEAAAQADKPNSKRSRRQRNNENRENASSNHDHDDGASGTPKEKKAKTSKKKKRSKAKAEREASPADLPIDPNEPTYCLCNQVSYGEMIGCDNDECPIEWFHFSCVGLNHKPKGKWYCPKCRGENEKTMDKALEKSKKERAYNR
UniProt P22692: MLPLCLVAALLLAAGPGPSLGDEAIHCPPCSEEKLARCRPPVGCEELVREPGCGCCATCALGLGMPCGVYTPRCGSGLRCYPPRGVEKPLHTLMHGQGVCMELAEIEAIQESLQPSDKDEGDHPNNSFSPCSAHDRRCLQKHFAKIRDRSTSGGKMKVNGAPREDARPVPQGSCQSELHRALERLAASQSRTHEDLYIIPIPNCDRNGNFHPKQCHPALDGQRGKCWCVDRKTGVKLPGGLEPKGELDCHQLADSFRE

log2 fold change, inactive:
IFIT3 (UniProt O14879) -0.099
HYOU1, A0A494C039 -0.041
ICE1 (UniProt Q9Y2F5) -0.05
ICAM4 (UniProt Q14773) 0.035
HTD2 (UniProt P86397) -0.042
IMPDH2 (UniProt H0Y4R1) 0.076
IGHMBP2 (UniProt P38935) -0.023
IDS (UniProt P22304) -0.249
IL17RA (UniProt Q96F46) 0
IFIH1 (UniProt Q9BYX4) -0.138
IFT22 (UniProt Q9H7X7) -0.1
IFT57 (UniProt Q9NWB7) 0.069
ICMT (UniProt O60725) -0.011
HVCN1 (UniProt Q96D96) -0.098
HUWE1 isoform 2 (UniProt Q7Z6Z7) -0.039
IGKC (UniProt P01834) 0.188
HYDIN (UniProt Q4G0P3) 0.022
IGSF1 isoform 4 (UniProt Q8N6C5) 0.178
IKZF4 (UniProt Q9H2S9) -0.169
IFT46 isoform 2 (UniProt Q9NQC8) -0.077
HSPH1 isoform 2 (UniProt Q92598) -0.007
HUWE1, A0A087X1S3 0
IDH3A isoform 2 (UniProt P50213) 0.036
ING2 (UniProt Q9H160) 0.35

Compound: C1COCCN1CCN2C3=CC=CC=C3N=C2NC(=O)C4=CC(=CC=C4)[N+](=O)[O-] [IRAK-1-4 Inhibitor I]
Assay: as above
Procedure, shortened: as §1

log2 fold change, inactive:
IFT81 (UniProt Q8WYA0) -0.162
IFIT3 (UniProt O14879) 0.024
ICE1 (UniProt Q9Y2F5) 0.081
HSPH1 (UniProt Q5TBM3) -0.18
ICAM4 (UniProt Q14773) -0.093
IGHA2 (UniProt P01877) -0.507
INO80C isoform 4 (UniProt Q6PI98) 0.08
HTD2 (UniProt P86397) -0.041
IMPDH2 (UniProt H0Y4R1) 0.037
IGKV3D-7, A0A0C4DH55 -0.228
ICOSLG isoform 2 (UniProt O75144) 0.276
HUWE1 (UniProt H0Y659) -0.29
IFT22 (UniProt Q9H7X7) 0.118
ING1 (UniProt Q9UK53) -0.031
IFT57 (UniProt Q9NWB7) 0.071
IGHV3-72, A0A4W8ZXM2 -0.354
ICMT (UniProt O60725) 0.034
IFT122 isoform 5 (UniProt Q9HBG6) 0.107
IFT88 (UniProt Q13099) 0.053
IGKC (UniProt P01834) -0.174
HYDIN (UniProt Q4G0P3) 0.712
IKZF4 (UniProt Q9H2S9) 0.051
IGHG3 (UniProt P01860) -0.196
HSPH1 isoform 2 (UniProt Q92598) -0.057
IGFBP4 (UniProt P22692) 0.016
HUWE1, A0A087X1S3 -0.015

From the supplement of paper PMC10849652
